Source: PMC8124066
Results are given in words; binding and its absence hold for the method and conditions named. Binding seen in cells or lysates may run through a third protein. Some entries that bind do so weakly or less than the wild type.

The chains behind the UniProt entries cited, without tags or fusion partners.
UniProt P46935: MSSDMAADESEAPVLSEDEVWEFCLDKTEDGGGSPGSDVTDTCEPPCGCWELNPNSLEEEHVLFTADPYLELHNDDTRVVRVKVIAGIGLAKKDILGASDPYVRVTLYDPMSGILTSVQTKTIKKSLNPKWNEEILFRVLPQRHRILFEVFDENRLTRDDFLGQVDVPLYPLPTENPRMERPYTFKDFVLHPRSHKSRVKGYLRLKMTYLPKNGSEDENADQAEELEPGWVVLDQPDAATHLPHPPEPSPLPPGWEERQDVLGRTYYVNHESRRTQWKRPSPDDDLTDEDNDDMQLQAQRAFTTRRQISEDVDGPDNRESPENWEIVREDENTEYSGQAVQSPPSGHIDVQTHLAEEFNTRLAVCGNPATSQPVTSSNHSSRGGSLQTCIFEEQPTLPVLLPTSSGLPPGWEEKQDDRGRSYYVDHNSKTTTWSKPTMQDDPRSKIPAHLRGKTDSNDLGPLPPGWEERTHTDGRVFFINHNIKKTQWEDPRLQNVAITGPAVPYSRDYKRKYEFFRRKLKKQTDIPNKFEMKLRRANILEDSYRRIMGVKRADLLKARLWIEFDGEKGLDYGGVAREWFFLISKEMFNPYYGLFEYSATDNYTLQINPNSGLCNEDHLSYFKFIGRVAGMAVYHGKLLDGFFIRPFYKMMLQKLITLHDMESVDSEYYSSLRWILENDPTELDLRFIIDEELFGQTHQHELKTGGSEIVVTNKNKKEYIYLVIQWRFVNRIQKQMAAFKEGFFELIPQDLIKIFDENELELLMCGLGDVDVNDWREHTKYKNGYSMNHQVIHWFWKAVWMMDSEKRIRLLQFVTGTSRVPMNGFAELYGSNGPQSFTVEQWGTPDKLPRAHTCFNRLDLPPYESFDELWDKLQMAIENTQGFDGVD
UniProt Q08775: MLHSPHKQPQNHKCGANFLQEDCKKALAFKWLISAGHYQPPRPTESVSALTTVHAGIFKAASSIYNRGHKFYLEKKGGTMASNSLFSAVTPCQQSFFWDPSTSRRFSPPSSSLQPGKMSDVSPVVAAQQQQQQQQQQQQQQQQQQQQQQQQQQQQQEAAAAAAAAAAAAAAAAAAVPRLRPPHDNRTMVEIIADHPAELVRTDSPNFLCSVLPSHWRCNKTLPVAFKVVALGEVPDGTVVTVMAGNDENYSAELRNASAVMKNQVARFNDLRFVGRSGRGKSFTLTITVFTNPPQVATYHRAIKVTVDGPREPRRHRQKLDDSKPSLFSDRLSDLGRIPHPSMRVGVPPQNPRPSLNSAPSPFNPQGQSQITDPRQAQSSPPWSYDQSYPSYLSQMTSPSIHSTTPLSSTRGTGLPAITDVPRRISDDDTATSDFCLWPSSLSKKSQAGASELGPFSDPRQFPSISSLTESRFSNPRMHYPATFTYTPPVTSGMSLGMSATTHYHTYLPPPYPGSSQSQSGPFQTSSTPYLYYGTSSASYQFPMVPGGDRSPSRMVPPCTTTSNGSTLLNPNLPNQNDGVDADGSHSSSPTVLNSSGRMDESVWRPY

Experiments:
[1] = biological target: Flag-tagged wild-type (wt) Nedd4 (UniProt P46935); assay: co-IP; Myc-Runx2 co-transfected with flag-Nedd4 constructs in M-BMSCs; whole-cell lysates immunoprecipitated with anti-flag antibody, immunoblotted with anti-flag or anti-myc antibodies
[2] = biological target: neuronal precursor cell-expressed developmentally downregulated 4 (Nedd4), endogenous (mouse (endogenous in M-BMSCs)) (UniProt P46935); assay: co-IP; endogenous proteins; M-BMSCs treated with PBS, lysed with RIPA buffer; whole-cell lysates used for IP with IgG, anti-Nedd4 or anti-Runx2 antibody, then immunoblotting
[3] = biological target: neuronal precursor cell-expressed developmentally downregulated 4 (Nedd4), endogenous (mouse (endogenous in M-BMSCs)) (UniProt P46935); assay: co-IP; endogenous proteins; M-BMSCs treated with beraprost (10 µM) for 12 h, lysed with RIPA buffer; whole-cell lysates used for IP with IgG, anti-Nedd4 or anti-Runx2 antibody, then immunoblotting

binding [1] | binding [2] | binding [3] | Substance
binds | – | – | Myc-Runx2 (from UniProt Q08775 1-607)
– | binds | binds weakly | runt-related transcription factor 2 (Runx2), endogenous (from UniProt Q08775 1-607)
